In publication PMC8034651:
Results are given in words; binding and its absence hold for the method and conditions named. In cells and extracts the contact can be indirect. A yes stands for co-enrichment or nearness to the bait. Other partners may have been found. Where a sequence is shown, tags or fusion partners need not be part of it.

Chains of the proteins cited; added tags and fusions are not shown.
UniProt O75533: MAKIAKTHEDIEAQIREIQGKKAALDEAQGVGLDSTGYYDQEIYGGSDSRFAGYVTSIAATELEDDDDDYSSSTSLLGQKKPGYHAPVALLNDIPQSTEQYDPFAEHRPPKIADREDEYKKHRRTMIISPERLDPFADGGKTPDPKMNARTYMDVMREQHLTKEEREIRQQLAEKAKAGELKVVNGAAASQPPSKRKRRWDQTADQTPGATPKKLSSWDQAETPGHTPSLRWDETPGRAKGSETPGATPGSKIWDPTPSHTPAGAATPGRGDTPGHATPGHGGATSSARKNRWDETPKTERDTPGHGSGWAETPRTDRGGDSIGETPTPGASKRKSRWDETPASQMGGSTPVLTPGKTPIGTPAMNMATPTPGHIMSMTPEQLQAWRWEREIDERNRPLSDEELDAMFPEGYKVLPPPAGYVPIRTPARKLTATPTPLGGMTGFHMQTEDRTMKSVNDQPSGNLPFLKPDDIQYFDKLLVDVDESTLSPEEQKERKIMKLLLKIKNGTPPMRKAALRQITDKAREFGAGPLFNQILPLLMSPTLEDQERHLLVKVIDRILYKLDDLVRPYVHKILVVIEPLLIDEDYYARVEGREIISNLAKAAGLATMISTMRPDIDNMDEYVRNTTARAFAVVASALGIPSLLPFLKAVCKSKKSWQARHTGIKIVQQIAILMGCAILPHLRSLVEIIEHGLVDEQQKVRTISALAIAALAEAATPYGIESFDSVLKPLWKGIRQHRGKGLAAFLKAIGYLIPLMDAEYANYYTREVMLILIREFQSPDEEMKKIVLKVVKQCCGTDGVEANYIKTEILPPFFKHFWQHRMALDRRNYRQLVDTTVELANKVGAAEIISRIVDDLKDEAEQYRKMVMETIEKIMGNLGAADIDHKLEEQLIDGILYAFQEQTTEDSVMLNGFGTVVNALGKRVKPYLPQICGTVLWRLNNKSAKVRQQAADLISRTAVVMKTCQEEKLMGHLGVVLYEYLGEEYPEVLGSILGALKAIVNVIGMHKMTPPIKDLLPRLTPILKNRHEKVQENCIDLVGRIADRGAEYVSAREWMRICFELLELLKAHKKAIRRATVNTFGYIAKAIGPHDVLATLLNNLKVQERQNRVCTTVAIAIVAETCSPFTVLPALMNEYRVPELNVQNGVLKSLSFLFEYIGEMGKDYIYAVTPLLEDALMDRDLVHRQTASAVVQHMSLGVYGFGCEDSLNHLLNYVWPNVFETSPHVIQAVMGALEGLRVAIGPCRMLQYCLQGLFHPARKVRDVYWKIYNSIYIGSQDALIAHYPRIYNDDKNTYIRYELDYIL
UniProt Q07955: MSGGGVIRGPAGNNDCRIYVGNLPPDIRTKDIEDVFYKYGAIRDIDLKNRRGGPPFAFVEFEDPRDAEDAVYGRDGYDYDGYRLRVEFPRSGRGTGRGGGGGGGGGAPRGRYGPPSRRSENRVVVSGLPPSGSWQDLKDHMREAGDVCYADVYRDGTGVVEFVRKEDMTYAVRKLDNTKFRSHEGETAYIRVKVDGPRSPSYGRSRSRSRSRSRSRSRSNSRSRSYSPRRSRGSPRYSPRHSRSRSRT

T1: Pdcd7-Myc (UniProt Q9WTY1)
T1 sequence: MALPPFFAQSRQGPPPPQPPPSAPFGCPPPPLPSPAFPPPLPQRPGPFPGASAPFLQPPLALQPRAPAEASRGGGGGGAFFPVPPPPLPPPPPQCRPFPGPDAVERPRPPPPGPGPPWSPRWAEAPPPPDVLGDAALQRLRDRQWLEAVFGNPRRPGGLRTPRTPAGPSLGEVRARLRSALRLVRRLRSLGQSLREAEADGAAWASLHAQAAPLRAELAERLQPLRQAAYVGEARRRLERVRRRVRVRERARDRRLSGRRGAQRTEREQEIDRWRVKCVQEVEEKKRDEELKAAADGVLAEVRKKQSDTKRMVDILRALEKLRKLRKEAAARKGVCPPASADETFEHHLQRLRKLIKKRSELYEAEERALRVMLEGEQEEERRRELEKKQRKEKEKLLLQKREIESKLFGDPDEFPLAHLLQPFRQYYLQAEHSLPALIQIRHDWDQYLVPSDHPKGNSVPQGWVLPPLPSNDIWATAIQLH

B1: U2AF1 (protein, UniProt Q01081 1-240)
chain: MAEYLASIFGTEKDKVNCSFYFKIGACRHGDRCSRLHNKPTFSQTIALLNIYRNPQNSSQSADGLRCAVSDVEMQEHYDEFFEEVFTEMEEKYGEVEEMNVCDNLGDHLVGNVYVKFRREEDAEKAVIDLNNRWFNGQPIHAELSPVTDFREACCRQYEMGECTRGGFCNFMHLKPISRELRRELYGRRRKKHRSRSRSRERRSRSRDRGRGGGGGGGGGGGGRERDRRRSRDRERSGRF
B2: SF1 (protein, UniProt Q15637 1-639)
chain: MATGANATPLDFPSKKRKRSRWNQDTMEQKTVIPGMPTVIPPGLTREQERAYIVQLQIEDLTRKLRTGDLGIPPNPEDRSPSPEPIYNSEGKRLNTREFRTRKKLEEERHNLITEMVALNPDFKPPADYKPPATRVSDKVMIPQDEYPEINFVGLLIGPRGNTLKNIEKECNAKIMIRGKGSVKEGKVGRKDGQMLPGEDEPLHALVTANTMENVKKAVEQIRNILKQGIETPEDQNDLRKMQLRELARLNGTLREDDNRILRPWQSSETRSITNTTVCTKCGGAGHIASDCKFQRPGDPQSAQDKARMDKEYLSLMAELGEAPVPASVGSTSGPATTPLASAPRPAAPANNPPPPSLMSTTQSRPPWMNSGPSESRPYHGMHGGGPGGPGGGPHSFPHPLPSLTGGHGGHPMQHNPNGPPPPWMQPPPPPMNQGPHPPGHHGPPPMDQYLGSTPVGSGVYRLHQGKGMMPPPPMGMMPPPPPPPSGQPPPPPSGPLPPWQQQQQQPPPPPPPSSSMASSTPLPWQQNTTTTTTSAGTGSIPPWQQQQAAAAASPGAPQMQGNPTMVPLPPGVQPPLPPGAPPPPPPPPPGSAGMMYAPPPPPPPPMDPSNFVTMMGMGVAGMPPFGMPPAPPPPPPQN
B3: SRSF3 (protein, UniProt P84103 1-164)
chain: MHRDSCPLDCKVYVGNLGNNGNKTELERAFGYYGPLRSVWVARNPPGFAFVEFEDPRDAADAVRELDGRTLCGCRVRVELSNGEKRSRNRGPPPSWGRRPRDDYRRRSPPPRRRSPRRRSFSRSRSRSLSRDRRRERSLSRERNHKPSRSFSRSRSRSRSNERK
B4: SNRNP40 (protein, UniProt Q96DI7 1-357)
chain: MIEQQKRKGPELPLVPVKRQRHELLLGAGSGPGAGQQQATPGALLQAGPPRCSSLQAPIMLLSGHEGEVYCCKFHPNGSTLASAGFDRLILLWNVYGDCDNYATLKGHSGAVMELHYNTDGSMLFSASTDKTVAVWDSETGERVKRLKGHTSFVNSCYPARRGPQLVCTGSDDGTVKLWDIRKKAAIQTFQNTYQVLAVTFNDTSDQIISGGIDNDIKVWDLRQNKLTYTMRGHADSVTGLSLSSEGSYLLSNAMDNTVRVWDVRPFAPKERCVKIFQGNVHNFEKNLLRCSWSPDGSKIAAGSADRFVYVWDTTSRRILYKLPGHAGSINEVAFHPDEPIIISASSDKRLYMGEIQ
B5: SRSF2 (protein, UniProt Q01130 1-221)
chain: MSYGRPPPDVEGMTSLKVDNLTYRTSPDTLRRVFEKYGRVGDVYIPRDRYTKESRGFAFVRFHDKRDAEDAMDAMDGAVLDGRELRVQMARYGRPPDSHHSRRGPPPRRYGGGGYGRRSRSPRRRRRSRSRSRSRSRSRSRSRYSRSKSRSRTRSRSRSTSKSRSARRSKSKSSSVSRSRSRSRSRSRSRSPPPVSKRESKSRSRSKSPPKSPEEEGAVSS

target: T1, Pdcd7-Myc; assay: affinity purification with mass spectrometry; Pdcd7-Myc overexpressed in HEK293T cells for 48 h, cells UV cross-linked (365 nm), lysed in modified RIPA buffer (50 mM Tris-HCl pH 8.0, 150 mM NaCl, 0.5% SDS), immunoprecipitated with goat anti-Myc on protein G Dynabeads; LC-MS/MS, label-free; empty vector as control; hits: >2-fold spectrum counts over control

binding | Molecule
binds | SF3B1 (from UniProt O75533 1-1304)
binds | SRSF1 (from UniProt Q07955 1-248)
binds | B1
binds | B2
binds | B3
binds | B4
binds | B5
